Experimental data from article PMC8828718.
Read-outs that look alike come from different tables or passages of the source. No constants are given. Whether binding was seen depends on the method and setting. Binding seen in cells or lysates may run through a third protein. Here binding means that the protein was enriched with, or labelled near, the bait; the list need not be complete.

Sequences of proteins named here, by UniProt entry; tags and fusion partners are left off.
UniProt Q9VK45: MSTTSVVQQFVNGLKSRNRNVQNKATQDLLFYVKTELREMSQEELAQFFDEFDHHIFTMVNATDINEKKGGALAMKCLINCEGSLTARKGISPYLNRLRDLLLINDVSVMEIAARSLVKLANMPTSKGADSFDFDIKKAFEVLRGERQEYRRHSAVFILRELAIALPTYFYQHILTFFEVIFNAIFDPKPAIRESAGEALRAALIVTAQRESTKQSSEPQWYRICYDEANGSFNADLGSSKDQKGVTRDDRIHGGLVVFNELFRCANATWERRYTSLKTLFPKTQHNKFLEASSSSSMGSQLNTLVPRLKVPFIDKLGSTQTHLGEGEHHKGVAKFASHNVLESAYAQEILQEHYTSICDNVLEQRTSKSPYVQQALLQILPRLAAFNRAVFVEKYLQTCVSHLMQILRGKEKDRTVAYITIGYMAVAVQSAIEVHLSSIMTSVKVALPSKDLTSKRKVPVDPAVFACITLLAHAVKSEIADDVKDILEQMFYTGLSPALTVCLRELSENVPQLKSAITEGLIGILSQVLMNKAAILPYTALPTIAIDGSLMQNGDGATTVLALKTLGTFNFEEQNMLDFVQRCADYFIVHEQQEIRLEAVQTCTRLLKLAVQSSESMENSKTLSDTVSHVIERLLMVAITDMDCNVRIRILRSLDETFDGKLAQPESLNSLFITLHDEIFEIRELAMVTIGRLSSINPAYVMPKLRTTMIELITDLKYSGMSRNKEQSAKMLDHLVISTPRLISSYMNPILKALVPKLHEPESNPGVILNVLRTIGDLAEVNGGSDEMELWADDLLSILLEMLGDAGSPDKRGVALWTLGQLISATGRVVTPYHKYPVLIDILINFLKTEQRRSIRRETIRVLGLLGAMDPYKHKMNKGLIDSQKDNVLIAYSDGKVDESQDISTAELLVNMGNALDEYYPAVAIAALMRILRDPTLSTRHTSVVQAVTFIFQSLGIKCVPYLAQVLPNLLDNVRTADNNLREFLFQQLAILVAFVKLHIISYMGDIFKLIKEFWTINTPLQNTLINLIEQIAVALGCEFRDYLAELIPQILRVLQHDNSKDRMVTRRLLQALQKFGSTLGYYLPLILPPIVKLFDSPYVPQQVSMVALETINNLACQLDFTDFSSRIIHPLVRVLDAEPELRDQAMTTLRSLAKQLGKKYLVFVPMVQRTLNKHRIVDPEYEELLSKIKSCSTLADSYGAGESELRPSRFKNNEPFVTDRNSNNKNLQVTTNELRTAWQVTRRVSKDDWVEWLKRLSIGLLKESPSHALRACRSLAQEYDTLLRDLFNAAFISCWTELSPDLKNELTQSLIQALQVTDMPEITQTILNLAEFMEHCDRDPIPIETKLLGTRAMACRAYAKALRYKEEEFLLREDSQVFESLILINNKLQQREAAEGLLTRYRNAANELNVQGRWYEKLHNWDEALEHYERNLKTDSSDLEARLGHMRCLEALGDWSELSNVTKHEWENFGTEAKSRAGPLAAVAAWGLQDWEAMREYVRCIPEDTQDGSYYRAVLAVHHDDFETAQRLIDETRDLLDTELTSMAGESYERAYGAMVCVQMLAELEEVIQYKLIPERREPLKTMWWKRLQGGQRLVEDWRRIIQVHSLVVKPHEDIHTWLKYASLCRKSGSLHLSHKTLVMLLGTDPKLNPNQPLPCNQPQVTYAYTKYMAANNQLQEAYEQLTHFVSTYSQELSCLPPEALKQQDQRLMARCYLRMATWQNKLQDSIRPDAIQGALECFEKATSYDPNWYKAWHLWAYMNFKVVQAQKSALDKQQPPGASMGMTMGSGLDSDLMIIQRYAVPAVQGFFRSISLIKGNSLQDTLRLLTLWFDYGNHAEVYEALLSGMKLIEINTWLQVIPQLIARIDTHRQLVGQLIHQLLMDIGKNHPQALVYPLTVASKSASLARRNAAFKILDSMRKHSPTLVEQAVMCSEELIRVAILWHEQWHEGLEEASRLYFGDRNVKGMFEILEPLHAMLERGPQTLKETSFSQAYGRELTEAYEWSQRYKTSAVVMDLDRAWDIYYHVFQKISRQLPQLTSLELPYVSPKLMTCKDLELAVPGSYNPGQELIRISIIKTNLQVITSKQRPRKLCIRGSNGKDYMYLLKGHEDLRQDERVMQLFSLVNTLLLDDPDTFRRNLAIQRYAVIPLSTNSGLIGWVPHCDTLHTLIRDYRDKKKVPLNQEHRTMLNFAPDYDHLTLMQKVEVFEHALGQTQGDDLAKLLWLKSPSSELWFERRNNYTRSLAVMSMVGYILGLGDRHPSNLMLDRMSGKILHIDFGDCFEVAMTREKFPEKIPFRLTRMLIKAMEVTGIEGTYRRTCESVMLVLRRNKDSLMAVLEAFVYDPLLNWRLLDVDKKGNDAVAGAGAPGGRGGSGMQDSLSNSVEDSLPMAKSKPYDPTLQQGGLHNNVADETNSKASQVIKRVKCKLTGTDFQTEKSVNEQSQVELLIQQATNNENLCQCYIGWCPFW

What was measured:
[1] = target: GST-Bsd (Back seat driver, CG8878) (Drosophila) (UniProt Q7KMI3); test: affinity purification with mass spectrometry; GST-Bsd (or GST) bound to glutathione sepharose beads, incubated with 12-24 h embryo lysate at 4 °C for 4 h, washed three times, LC-MS; only the target purified
[2] = target: GST-Bsd (Back seat driver, CG8878) (Drosophila) (UniProt Q7KMI3); test: as above; remark: listed apart in the source

Row | binding [1] | binding [2] | Molecule
1 | binds | – | Target of Rapamycin (endogenous, embryo lysate) (from UniProt Q9VK45 1-2470) (enzyme)
2 | – | binds | Yp3 (endogenous, embryo lysate) (protein, UniProt P06607 20-420) SKDASNDRLKPTKWLTATELENVPSLNDITWERLENQPLEQGAKVIEKIYHVGQIKHDLTPSFVPSPSNVPVWIIKSNGQKVECKLNNYVETAKAQPGFGEDEVTIVLTGLPKTSPAQQKAMRRLIQAYVQKYNLQQLQKNAQEQQQQLKSSDYDYTSSEEAADQWKSAKAASGDLIIIDLGSTLTNFKRYAMLDVLNTGAMIGQTLIDLTNKGVPQEIIHLIGQGISAHVAGAAGNKYTAQTGHKLRRITGLDPAKVLSKRPQILGGLSRGDADFVDAIHTSTFAMGTPIRCGDVDFYPNGPSTGVPGSENVIEAVARATRYFAESVRPGSERNFPAVPANSLKQYKEQDGFGKRAYMGLQIDYDLRGDYILEVNAKSPFGQRSPAHKQAAYHGMHHAQN
3 | – | binds | Jaguar (Jar, Myosin VI; endogenous, embryo lysate) (protein, UniProt Q01989 1-1253) MLEDTQLVWVRDAAEGYIQGRITEIGAKEFEVTPTDRKYPKRTCHFDDIHSSCDGPQDHDDNCELMLLNEATFLDNLKTRYYKDKIYTYVANILIAVNPYREIKELYAPDTIKKYNGRSLGELPPHVFAIADKAIRDMRVYKLSQSIIVSGESGAGKTESTKYLLKYLCYSHDSAGPIETKILDANPVLEAFGNAKTTRNNNSSRFGKFIEVHYDAKCQVVGGYISHYLLEKSRICTQSAEERNYHVFYMLLAGAPQQLRDKLSLGKPDDYRYLSGCTQYFANAKTEQLIPGSQKSKNHQQKGPLKDPIIDDYQHFHNLDKALGRLGLSDTEKLGIYSLVAAVLHLGNIAFEEIPDDVRGGCQVSEASEQSLTITSGLLGVDQTELRTALVSRVMQSKGGGFKGTVIMVPLKIYEASNARDALAKAIYSRLFDRIVGLINQSIPFQASNFYIGVLDIAGFEYFTVNSFEQFCINYCNEKLQKFFNDNILKNEQELYKREGLNVPEITFTDNQDIIELIEAKSNGIFTLLDEESKLPKPSYSHFTAEVHKSWANHYRLGLPRSSRLKAHRTLRDEEGFLVRHFAGAVCYNTEQFIEKNNDALHASLEGLVQECDNPLLQTLFPSGSSTSVRGKLNFISVGSKFKTQLGELMEKLEQNGTNFIRCIKPNSKMIDRQFEGSLALAQLKCSGTISVLELMEHGYPSRVLFADLYSMYKSVLPPELVSLPARTFCEAMFQSLNLSAKDFKFGITKVFFRPGKFVEFDRIMRSDPENMLAIVAKVKKWLIRSRWVKSALGALCVIKLRNRIIYRNKCVLIAQRIARGFLARKQHRPRYQGIGKINKIRTNTLKTIEIASGLKMGREEIISGVNDIYRQIDDAIKKIKMNPRITQREMDSMYTVVMANMNKLTVDLNTKLKEQQQAEEQERLRKIQEALEAERAAKEAEEQRQREEIENKRLKAEMETRRKAAEAQRLRQEEEDRRAALALQEQLEKEAKDDAKYRQQLEQERRDHELALRLANESNGQVEDSPPVIRNGVNDASPMGPNKLIRSENVRAQQQALGKQKYDLSKWKYSELRDAINTSCDIELLEACRQEFHRRLKVYHAWKAKNRKRTTMDENERAPRSVMEAAFKQPPLVQPIQEIVTAQHRYFRIPFMRANAPDNTKRGLWYAHFDGQWIARQMELHADKPPILLVAGTDDMQMCELSLEETGLTRKRGAEILEHEFNREWERNGGKAYKNLGAAKPNGPAAAMQKQQ
